# Laboratory results published in PubChem BioAssay AID540276 (National Center for Advancing Translational Sciences (NCATS), 2011).
# The campaign covered roughly 300,000 compounds. About 5,400 (1.8%) were called active. Inconclusive results, whose numbers are uncertain, are shown with a selection of clear calls. Calls come from the whole dose curve; tested in HEK293 cells. Potencies beside an inconclusive call are fits to weak or partial responses and may not hold up.
# Test: qHTS for inhibitors of binding or entry into cells for Marburg Virus
# Details: Marburg virus pseudotyped entry inhibition, cell reporter; series mostly up to 37.8 µM
# Potency is the fitted concentration of half-maximal effect.
row,SMILES,Potency
1,COc1ccccc1NC(=O)COc1ccc(/C=N/NC(=O)CSCc2cc(C)cc(C)c2)cc1,"inconclusive: 15.8 µM [inhibitor, single point]"
2,O=C(/C(=C/O)N=Nc1ccccc1)c1ccco1,"inconclusive: 11.2 µM [inhibitor, partial curve, poor fit]"
3,COc1ccc(/C(C)=N/NC(=O)CNC(=O)c2ccco2)cc1,"inconclusive: 0.794 µM [inhibitor, full curve, poor fit]"
4,CCOC(=O)c1ccccc1NC(=O)Cn1c(=O)n(CCCC(=O)NCc2ccc3c(c2)OCO3)c(=O)c2ccccc21,"inconclusive: 5.62 µM [activator, single point]"
5,CC12CC(NC(=O)N1c1ccc(C(=O)N3CCN(c4ccc(F)cc4)CC3)cc1)c1ccccc1O2 (stereo unspecified),inactive
6,CCCCCCCCn1c2c(c(=N)c3ccccc31)CCC2,"inconclusive: 5.01 µM [inhibitor, full curve, poor fit]"
7,CC(=O)N1CCc2cc(S(=O)(=O)N3CCc4ccccc43)ccc21,"inconclusive: 11.2 µM [inhibitor, partial curve, poor fit]"
8,Cc1cccc(OCCNC(=O)c2cccc(Oc3ccc(C(F)(F)F)cc3[N+](=O)[O-])c2)c1,"inconclusive: 3.98 µM [activator, single point]"
9,CC(NNC(=S)N1CCN(c2ccccn2)CC1)c1nccc2ccccc12 (stereo unspecified),"inconclusive: 0.112 µM [inhibitor, full curve, poor fit]"
10,COc1cc(C(=O)NC(=S)N(CCC#N)Cc2cccnc2)cc(OC)c1OC,inactive
11,CCOC(=O)c1c(-c2ccccc2)oc2ccc(O)c(CN3CCCC3)c12,active: 23.1 µM
12,Cn1cnc([N+](=O)[O-])c1Sc1nc2ccccc2[nH]1,inactive
13,Cc1cc(=O)oc2cc(OCC(=O)OCc3nnc(-c4ccccc4)o3)ccc12,"inconclusive: 35.5 µM [activator, partial curve, poor fit]"
14,COc1ccc(C(=O)NCCS(=O)(=O)NCc2ccc(F)cc2)cc1,inactive
15,NS(=O)(=O)c1ccc(CCNC(=O)c2ccc(Cl)c(S(=O)(=O)NCc3ccco3)c2)cc1,inactive
16,CCCCN(C)CCn1c(=S)[nH]c2cc(OCC)c(OCC)cc2c1=O,"inconclusive: 0.631 µM [inhibitor, full curve, poor fit]"
17,CC1C(=O)Nc2ccc(S(=O)(=O)N3CCc4ccccc4C3)cc2NC1=O (stereo unspecified),"inconclusive: 1.41 µM [inhibitor, full curve, poor fit]"
18,CC(C)(C)n1ncc2c(=O)n(CC(=O)N3CCCC3)cnc21,inactive
19,COc1cc(C(C)=O)ccc1OCC(O)CN1CCN(c2c(C)cccc2C)CC1 (stereo unspecified),"inconclusive: 2.24 µM [inhibitor, partial curve, poor fit]"
20,COc1nc2ccccc2c(=O)n1-c1ccc(C)cc1,inactive
21,COC(=O)C1=CN(c2cc(C)cc(C)c2)C=C(C(=O)OC)C1c1ccc(OC)c(O)c1,"inconclusive: 10 µM [inhibitor, partial curve, poor fit]"
22,Cn1c2c(c(=O)n(C)c1=O)[C@@]1(C(=O)Nc3ccccc31)C(C#N)=C(N)O2,"inconclusive: 14.1 µM [inhibitor, single point]"

# Ordered by number of heavy atoms (low to high): part of the list above.
row,SMILES,Potency
14,COc1ccc(C(=O)NCCS(=O)(=O)NCc2ccc(F)cc2)cc1,inactive
11,CCOC(=O)c1c(-c2ccccc2)oc2ccc(O)c(CN3CCCC3)c12,active: 23.1 µM
15,NS(=O)(=O)c1ccc(CCNC(=O)c2ccc(Cl)c(S(=O)(=O)NCc3ccco3)c2)cc1,inactive

# The listing continues.

row,SMILES,Potency
1,Cn1c(=O)c2c(ncn2CC(=O)OCC(=O)NNC(=O)c2ccc(Cl)cc2)n(C)c1=O,"inconclusive: 0.112 µM [activator, full curve, poor fit]"
2,O=C(Nc1ccc(N2CCN(C(=O)c3ccco3)CC2)cc1)c1cc(Br)ccc1Cl,active: 10 µM
3,O=C(COc1ccc2ccccc2c1)NNC(=O)Cc1cccc2ccccc12,"inconclusive: 35.5 µM [inhibitor, single point]"
4,Cc1occc1C(=O)NCCCCNC(=O)c1ccoc1C,inactive
5,COc1ccc(CNC(=O)c2ccc(CSc3nc4ccncc4n3Cc3ccccc3F)cc2)cc1,inactive
6,O=C(CN1CCN(S(=O)(=O)c2ccc(F)cc2)CC1)Nc1ccc2c(c1)OCCO2,inactive
7,O=C1NC(=O)[C@H](c2cn(-c3ccccc3)nc2-c2ccc(F)cc2)N1,inactive
8,CC(C)C(=O)Nc1ccc(NC(=O)c2ccc(COc3ccccc3)cc2)cc1,"inconclusive: 0.355 µM [inhibitor, full curve, poor fit]"
9,CC[N+]12CCC(CC1)C(=C(c1ccccc1)c1ccccc1)C2,inactive
10,O=C1Nc2c(Br)cc(Br)c3cccc1c23,"inconclusive: 12.6 µM [inhibitor, partial curve, poor fit]"
11,Nc1c[n+](N2CCOCC2)no1,inactive
12,O=Cc1c(Cl)nc2ccccn2c1=O,"inconclusive: 35.5 µM [inhibitor, single point]"
13,COc1ccccc1NC(=O)CCC(=O)Nc1nnc(C2CCCCC2)s1,inactive
14,CC(C)Oc1ccccc1/C=N/NC(=O)c1ccc(F)cc1,"inconclusive: 0.631 µM [inhibitor, partial curve, poor fit]"
15,Cc1ccc(C(=O)n2c(-c3ccccc3)cnc2SCC(=O)Nc2ccc(C)cc2C)cc1,"inconclusive: 3.98 µM [activator, partial curve, poor fit]"
16,Cc1cc(N)n(-c2ncnc3scc(-c4ccc(Cl)cc4)c23)n1,"inconclusive: 0.82 µM [inhibitor, full curve, poor fit]"
17,Cc1ccc(C(=O)/C=C/Nc2ccccc2C(N)=O)o1,inactive
18,O=C(c1ccc(CS(=O)c2cccc(Cl)c2)o1)N1CCCCCC1 (stereo unspecified),"inconclusive: 35.5 µM [inhibitor, partial curve, poor fit]"
19,Cc1sc(NC(=O)c2ccc(Cl)s2)c(C(N)=O)c1C,"inconclusive: 29.1 µM [inhibitor, single point]"
20,CCOc1ccc(Nc2nc(N3CCOCC3)nc(N3CCOCC3)n2)cc1,"inconclusive: 11.2 µM [inhibitor, partial curve]"
21,Cc1c(CN(C)C(=O)c2sc3cc(Cl)ccc3c2Cl)cnn1C,"inconclusive: 25.1 µM [inhibitor, single point]"
22,Cc1c(NS(=O)(=O)c2cc(Br)cc3c2N(C(=O)C2CC2)CC3)c(=O)n(-c2ccccc2)n1C,"inconclusive: 0.562 µM [activator, full curve, poor fit]"

row,SMILES,Potency
1,CCOc1cc(C)c(S(=O)(=O)NC2CCCCC2)cc1C,inactive
2,Cc1cc(=O)[nH]c(N/N=C/c2ccc(N(C)C)cc2)n1,"inconclusive: 7.94 µM [activator, partial curve, poor fit]"
3,CC1C/C(=N\Nc2ccc(S(N)(=O)=O)cc2[N+](=O)[O-])CC(C)(C)C1 (stereo unspecified),"inconclusive: 29.1 µM [inhibitor, single point]"
4,Nc1nonc1-c1nc2ccccc2n1CC(=O)Nc1ccccc1,"inconclusive: 3.98 µM [inhibitor, partial curve, poor fit]"
5,CCN(CC)S(=O)(=O)c1ccc(C)c(NC(=S)Nc2cccc(S(=O)(=O)N3CCCCCC3)c2)c1,"inconclusive: 35.5 µM [inhibitor, single point]"
6,CCCOC(=O)Cn1cnc2scc(-c3ccc(C)cc3)c2c1=O,"inconclusive: 20 µM [activator, partial curve, poor fit]"
7,Cc1oc(-c2ccccc2)cc1C(=O)NC1CCN(Cc2ccccc2)CC1,"inconclusive: 35.5 µM [inhibitor, single point]"
8,O=C(NCCO)c1ccc(CSc2nc3ccccc3[nH]2)cc1,inactive
9,CCC(=O)Nc1nnc(/C=C/c2ccc(OC)cc2)s1,inactive
10,Cc1cccc(CCN(C(=O)c2snc(C(N)=O)c2N)C(C(=O)NCC2CCCO2)c2ccc(F)cc2)c1 (stereo unspecified),"inconclusive: 35.5 µM [inhibitor, single point]"
11,CCOC(=O)c1[nH]c(C)c(C(=O)OC)c1C,"inconclusive: 0.562 µM [activator, full curve, poor fit]"
12,COc1ccc(NC(=O)C(C)n2nc(-c3cc(C)ccc3C)c3c(c2=O)CCCC3)cc1 (stereo unspecified),"inconclusive: 5.62 µM [inhibitor, full curve, poor fit]"
13,O=C(Cc1ccccc1[N+](=O)[O-])N1CCN(c2ccccc2F)CC1,"inconclusive: 35.5 µM [activator, single point]"
14,CC(C)(C)C(=O)NCCN1C(=O)S/C(=C\c2ccc([N+](=O)[O-])cc2)C1=O,"inconclusive: 25.9 µM [inhibitor, single point]"
15,CCN(CC)C(=O)Cn1cc(S(=O)(=O)CC(=O)Nc2ccc(F)cc2F)c2ccccc21,"inconclusive: 15.8 µM [activator, partial curve, poor fit]"
16,O=c1c2c(-c3cccs3)csc2ncn1-n1cccc1,inactive
17,O=[N+]([O-])c1ccc(Nc2nc(N3CCOCC3)nc(N3CCOCC3)n2)cc1,"inconclusive: 0.224 µM [inhibitor, full curve, poor fit]"
18,CC(C)CCN(CC(=O)NCc1ccc(F)cc1)S(=O)(=O)c1ccccc1F,"inconclusive: 11.2 µM [inhibitor, single point]"
19,O=C(CNC(=O)c1ccc(Cl)cc1Cl)OCCOc1ccccc1,"inconclusive: 35.5 µM [activator, single point]"
20,CCC1=Nc2cc(C(=O)NCc3ccco3)ccc2Sc2ccc(Cl)cc21,"inconclusive: 5.8 µM [inhibitor, full curve, poor fit]"
21,CC1(C)Cc2c(sc3[nH]c(=S)n(Cc4ccccc4)c(=O)c23)CO1,"inconclusive: 9.2 µM [inhibitor, partial curve]"
22,CCNC(=O)CC1C(=O)N(c2ccc(C)cc2)C(=O)N1CCC(C)C (stereo unspecified),inactive
